The test in a line: qHTS Assay to Find Inhibitors of Chronic Active B-Cell Receptor Signaling. The settings on record: ABC-DLBCL IkBa-CBG/CBR reporter, luminescence ratio (green luciferase fused to IkBa over red control in TMD8 lymphoma cells), 4 h. In outline: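 Doxycycline induced both beetle luciferases in TMD8 lymphoma cells; IKK-driven degradation limits the IkappaBalpha-fused green signal, while red luminescence normalises for cell number and nonspecific effects. Compounds tested up to 46 uM, 4 hrs.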
On the technique in general: Quantitative high-throughput screening tests each substance at several concentrations.

Setting [1] is: measured here: CBR red luminescence, cell number.
[2] abbreviates: measured here: IkBa-CBG green luminescence.

The other results are listed elsewhere or left out. These are further read-outs of the screen, such as a control signal, another cell line or another target. No call is given for them. Most of these compounds were active or inconclusive in the main read-out, so they are no random draw. The note in brackets gives the kind of curve behind each potency; many fits are weak.

By AC50 is commonly meant the concentration giving half of the maximal activity seen. With `Cc1cc(C)cc(-n2ncc3c2CCCC3NC(=O)c2cc(C)[nH]n2)c1` (stereo not given), the AC50 under setting [1] is 22.4 µM [falling, single point]. On to `O=[N+]([O-])c1cccc(-c2nc(Oc3ccc(Cl)cc3)c3ccccc3n2)c1`, for which the AC50 under setting [1] was 9.2 µM [falling, partial curve]. As to `Cn1ccnc1SCC(=O)Nc1ccccc1`, under setting [1], the AC50 was 3.66 µM [rising, partial curve, poor fit]. For `O=C(NCCc1ccccn1)c1nc(Cn2cc(Br)cn2)no1`, under setting [1], the AC50 was 12.6 µM [rising, partial curve, poor fit].

In the case of `Cc1nn(-c2ccccc2)c(Cl)c1/C=C/C(=O)c1ccccc1`, the AC50 under setting [1] is 11.6 µM [falling, single point].

As to `Cc1c(C)[n+](=O)c(-c2ccc(F)cc2)c(C)n1[O-]`, under setting [1], the concentration at half-maximal activity (AC50) is 15.8 µM [rising, partial curve].

For `C=CCn1c(CCCOc2ccc(Cl)cc2Cl)n[nH]c1=S`, the AC50 under setting [2] is 20.6 µM [falling, single point].

With `COc1ccc(CCC(C)NCc2cccc(Br)c2)cc1` (stereo not given), the AC50 under setting [1] was 8.91 µM [rising, partial curve]. On the same count and under the same terms, in the case of `CCOc1ccccc1NC(=O)N1CCc2ccccc2C1` it was 2.51 µM [falling, partial curve, poor fit]; in that of `CCOc1ccc(NC(=O)c2ccccc2O)cc1`, 8.2 µM [falling, partial curve].

`O=C(COC(=O)C1CCC(=O)N1)Nc1ccccc1Br` (stereo not given): the AC50 under setting [1] was 12.6 µM [rising, partial curve, poor fit].

`Cc1ccc(-c2cc(C(=O)N/N=C/c3c(C)nn(-c4ccccc4)c3C)[nH]n2)cc1`: the AC50 by setting is: under setting [1], 3.66 µM [rising, full curve]; under setting [2], 4.11 µM [falling, full curve]. For the compound `Cc1ccccc1NC(=O)CN1C(=O)N/C(=C\c2ccccc2OCc2ccc(C(=O)O)cc2)C1=O`, the AC50 under setting [1] is 1.12 µM [rising, partial curve, poor fit]. As for `COc1cccc(N2CCN(C(=O)c3ccc(CS(=O)c4ccc(C)cc4)o3)CC2)c1` (stereo not given), the AC50 reads like this: under setting [1], 7.94 µM [rising, partial curve]; under setting [2], 14.1 µM [falling, partial curve]. In the case of `COc1ccc(-c2c(C)nn3c(N)c(-c4ccccc4)cnc23)cc1OC`, the AC50 is, setting by setting: under setting [1], 12.6 µM [falling, single point]; under setting [2], 10 µM [falling, partial curve, poor fit].

With `NS(=O)(=O)c1ccc(NC(=S)N2CCN(c3ccc(Cl)c(Cl)c3)CC2)cc1`, the AC50 under setting [1] was 29.1 µM [rising, single point]. For `Cc1ccc(C(=O)Nc2sc3c(c2C(=O)O)CCC(C)C3)o1` (stereo not given), the AC50 under setting [1] was 1.46 µM [falling, full curve].

The record behind these values is PubChem BioAssay AID493014 (National Center for Advancing Translational Sciences (NCATS), 2011).
